At least one compound was matched to its structure with a doubt left.
What was measured:
Assay type in all cases: cell-based, Wistar rat
[1] = system: DA (TH^+) neurons; assay: Excitotoxicity model (elevated K^+) in midbrain cultures; conditions: for protection of DA neurons from excitotoxicity: K^+ (30 mM) between 5 and 7 DIV, compound 1 at 30 µM; for protection of DA neurons from excitotoxicity in the presence of compound 3: compound 3 (2 µM) concomitantly added
[2] = system: CD11b^+ microglial cells; assay: Neuro-inflammation model: number of microglial cells in midbrain cultures; conditions: for number of microglial cells: 10 DIV midbrain cultures, compound 1 at 30 µM, compound 2 at 1 µM; for effect on number of microglial cells in the presence of compound 3: compound 3 (2 µM) concomitantly added
[3] = system: DA (TH^+) neurons; assay: GDNF withdrawal model in midbrain cultures; conditions: for TH^+ neurons saved from death after GDNF deprivation: compound 1 at 30 µM, compound 2 at 1 µM, added in replacement of GDNF, 11 to 15 DIV; for protective effect after GDNF deprivation in the presence of compound 3: compound 3 (2 µM) concomitantly added
[4] = system: midbrain DA (TH^+) neurons; assay: Spontaneous dopaminergic (DA) cell death model in midbrain cultures; conditions: for neuroprotection compared with GDNF: GDNF 20 ng/ml as positive control, 10 DIV; for neuroprotective effect in the presence of compound 3: compound 3 (2 µM) added; for number of midbrain DA (TH^+) neurons: neurons die spontaneously, chronic treatments for 10 days
Procedure: Animals were treated in accordance with the Guide for the Care and Use of Laboratory Animals (National Research Council, 1996), European Directive 86/609, and the guidelines of the local institutional animal care and use committee. Cultures were prepared from the ventral mesencephalon of gestational age 15.5 Wistar rat embryos (Janvier Breeding Center, Le Genest St Isle, France). Dissociated cells in suspension obtained by mechanical trituration of midbrain tissue pieces were seeded at a density of 1.2-1.5 10^5 cells/ cm^2 onto tissue culture supports precoated with 1 mg/ml polyethylenimine diluted in borate buffer pH 8.3 as described (Michel PP, et al., J Neurochem. 1997 Oct;69(4):1499-507). The cultures were then maintained in N5 medium supplemented with 5 mM glucose, 5% horse serum, and 0.5% fetal calf serum, except for the first 3 days in vitro (DIV), when the concentration of fetal calf serum was 2.5% to favor initial maturation of the cultures (Guerreiro S, et al., Mol Pharmacol. 2008 Oct;74(4):980-9). They were fed daily by replacing 70% of the medium. Routinely, mesencephalic cultures were established on Nunc 24-well culture plates (Thermofischer Scientific, Rochester, NY). Note that these cultures contain tyrosine hydroxylase (TH)^+ neurons that were exclusively dopaminergic (Traver S, et al., Mol Pharmacol. 2006 Jul;70(1):30-40). TH^+ neurons represented approximately 1-2% of the total number of neuronal cells present in these cultures. The evaluation of the survival of DA neurons was performed by counting cells immunopositive for TH as described (Toulorge D, et al., Faseb J. 2011 Aug;25(8):2563-73).
We used a model system in which DA cell loss was spontaneous. The demise of DA neurons was progressive after plating to reach approximately 70-80% after 10 DIV (Guerreiro S, et al., Mol Pharmacol. 2008 Oct;74(4):980-9). For the spontaneous dopaminergic cell death model, TH^+ neurons were counted while for the neuro-inflammation model, the number of microglial cells was evaluated.
The cultures were fixed for 12 min using 4% formaldehyde in Dulbecco's phosphate-buffered saline (PBS), then washed twice with PBS before an incubation step at 4 °C for 24 h with the following antibodies. A monoclonal anti-TH antibody diluted 1/5000 (ImmunoStar, Inc., Hudson, WI) or a polyclonal anti-TH antibody diluted 1/1000 (US Biologicals, Salem, MA) was used to assess the survival of DA neurons. A monoclonal anti-MAP2 antibody diluted at 1/200 (clone AP20, Sigma-Aldrich) was used to assess the survival of cortical neurons. Microglial cells were characterized using a mouse anti-CD11b antibody (1/50; clone MRC OX-42; Pharmingen, BD Biosciences, Le Pont-de-Claix, France). All antibodies were diluted in PBS containing 0.2% Triton X-100, except the mouse anti-CD11b which was diluted in PBS only. Detection of the primary antibodies was performed with an Alexa Fluor-488 conjugate of an anti-mouse IgG antibody or with an Alexa Fluor-555 conjugate of an anti-rabbit antibody (1:500).

[5] = system: DA (TH^+) neurons; assay: Oxidative stress model in mesencephalic cultures; conditions: chronic exposure, 10 DIV; compound 1 at 30 µM, compound 2 at 1 µM
[6] = system: DA (TH^+) neurons; assay: MPP^+ intoxication model in midbrain cultures; conditions: for prevention of MPP^+-induced DA cell loss: 3 µM MPP^+ between 5 and 7 DIV, compound 1 at 30 µM, compound 2 at 1 µM; for prevention of MPP^+-induced DA cell loss in the presence of compound 3: compound 3 (2 µM) concomitantly added
[7] = system: Microtubule-Associated Protein 2 (MAP2) positive neurons; assay: Excitotoxicity model (elevated K^+) in cortical cultures

Row | SMILES | protection of DA neurons from excitotoxicity ([1]; compound 2 at 1 µM) | protection of DA neurons from excitotoxicity in the presence of compound 3 [1] | number of microglial cells [2] | effect on number of microglial cells in the presence of compound 3 [2] | TH^+ neurons saved from death after GDNF deprivation [3] | protective effect after GDNF deprivation in the presence of compound 3 [3] | neuroprotection compared with GDNF [4] | neuroprotective effect in the presence of compound 3 [4] | number of midbrain DA (TH^+) neurons [4] | protection of DA neurons from oxidative stress [5] | prevention of MPP^+-induced DA cell loss [6] | prevention of MPP^+-induced DA cell loss in the presence of compound 3 [6] | protection from excitotoxicity compared with memantine ([1]; compound 2 at 1 µM, memantine (8 µM)) | protection of cortical neurons from excitotoxicity ([7]; K^+ (30 mM) between 5 and 7 DIV, compound 2 at 1 µM) | protection of cortical neurons from excitotoxicity in the presence of compound 3 ([7]; compound 3 (2 µM) concomitantly added)
1 | Nc1ncnc2c1ncn2[C@@H]1O[C@H](COP(=O)(O)OP(=O)(O)OC[C@H]2O[C@@H]([n+]3cccc(C(=O)[O-])c3)[C@H](O)[C@@H]2O)[C@@H](O)[C@H]1OP(=O)(O)O [compound 1, 1-[(2R,3R,4S,5R)-5-[[[[(2R,3R,4R,5R)-5-(6-aminopurin-9-yl)-3-hydroxy-4-phosphonooxyoxolan-2-yl]methoxy-hydroxyphosphoryl]oxy-hydroxyphosphoryl]oxymethyl]-3,4-dihydroxyoxolan-2-yl]pyridin-1-ium-3-carboxylic acid] | partially protected from excitotoxicity | suppressed | partly reduced the number of microglial cells | suppressed | a large population of these neurons were saved from death | abolished | better neuroprotection than GDNF | fully antagonized | concentration-dependently increased | protected DA neurons | partially | suppressed | – | – | –
2 | CC(=O)OCOC(=O)c1ccc[n+]([C@@H]2O[C@H](COP(=O)(O)OP(=O)(OCOC(C)=O)OC[C@H]3O[C@@H](n4cnc5c(N)ncnc54)[C@H](OP(=O)(OCOC(C)=O)OCOC(C)=O)[C@@H]3O)[C@@H](O)[C@H]2O)c1 (stereo partly drawn) [compound 2, 1-((2R,3R,4S,5R)-5-((((((acetoxymethoxy)(((2R,3R,4R,5R)-5-(6-amino-9H-purin-9-yl)-4-((bis(acetoxymethoxy)phosphoryl)oxy)-3-hydroxytetrahydrofuran-2-yl)methoxy)phosphoryl)oxy)(hydroxy)phosphoryl)oxy)methyl)-3,4-dihydroxytetrahydrofuran-2-yl)-3-((acetoxymethoxy)carbonyl)pyridin-1-ium] | partially protected from excitotoxicity | suppressed | partly reduced the number of microglial cells | suppressed | totally | abolished | better neuroprotection than GDNF | fully antagonized | concentration-dependently increased | protected DA neurons | almost totally prevented | suppressed | protected to a similar extent | partially protected from excitotoxicity | suppressed
